Results: patent publication US7374894B2, “Methods of identifying compounds that modulate IL-4 receptor-mediated IgE synthesis utilizing a chloride intracellular channel 1 protein” (Rigel Pharmaceuticals, Inc., priority 2002, dated 2008)
Some entries share one result that the patent states for a list of compounds.

Test system: IL-4 induced germline ε transcription
Experiment: Re-infection assay in naïve A5T4 reporter cells (BFP-/BFP+ GFP FACS)
Type: cell-based, human
Details: % change calculated after subtracting 1.0 from the individual ratios
Experimental: The ability of peptide DL03 wt (SEQ ID NO:1) to inhibit germline ε transcription was confirmed in naïve cells. Briefly, Phoenix cells were transfected with a retroviral vector encoding a BFP-DL03 wt (SEQ ID NO:1) peptide fusion as described in WO 99/58663 and WO 97/27213. Naïve A5T4 cells were infected with the resultant virions and grown for 3 days. The infected cells were stimulated with IL-4 (60 U/mL) and, after 3 days, the cells were assessed by FACS for BFP and GFP. […] The BFP fluorescence data corresponding to the BFP^+ and BFP^− populations are provided in Panel A. The GFP fluorescence data corresponding to the BFP^+ and BFP^− populations are presented in Panel B. The reporter ratio for this purpose is determined as the geometric mean of the GFP fluorescence of the BFP^− population divided by the geometric mean of the GFP fluorescence of the BFP^+ population as presented in panel C. The reporter ratio for the DL03 in this re-infection assay was 1.50. […]
Comparison of the interaction and functional profiles was performed by categorizing the mutants of DL03 based on the functional and interaction assays. […] The % increase or decrease in reporter ratio is calculated after subtracting 1.0 from the individual ratios. […]

Substance	functional category of mutant as compared to wild type peptide, based on reporter ratio
LYTSAALHGATTASMTKPLA (Peptide generated by a combinatorial library) [DL03IL, double-residue mutant of DL03 wt]	ROF (a reduction of function (ROF) of mutant shows a >50% decrease in reporter ratio)
LYTS I LLHGATTASMTKPAR (LYTSILLHGATTASMTKPAR; peptide generated from combinatorial library) [DL03LA, double-residue mutant of DL03 wt]	ROF (a reduction of function (ROF) of mutant shows a >50% decrease in reporter ratio)
